Assay results taken from the supplement of paper PMC10849652.
The other results are listed elsewhere or left out.

Sequences of proteins named here, by UniProt entry; tags and fusion partners are left off. A change or cut given only in a name is not applied to a line headed by its entry.
UniProt Q68DH5: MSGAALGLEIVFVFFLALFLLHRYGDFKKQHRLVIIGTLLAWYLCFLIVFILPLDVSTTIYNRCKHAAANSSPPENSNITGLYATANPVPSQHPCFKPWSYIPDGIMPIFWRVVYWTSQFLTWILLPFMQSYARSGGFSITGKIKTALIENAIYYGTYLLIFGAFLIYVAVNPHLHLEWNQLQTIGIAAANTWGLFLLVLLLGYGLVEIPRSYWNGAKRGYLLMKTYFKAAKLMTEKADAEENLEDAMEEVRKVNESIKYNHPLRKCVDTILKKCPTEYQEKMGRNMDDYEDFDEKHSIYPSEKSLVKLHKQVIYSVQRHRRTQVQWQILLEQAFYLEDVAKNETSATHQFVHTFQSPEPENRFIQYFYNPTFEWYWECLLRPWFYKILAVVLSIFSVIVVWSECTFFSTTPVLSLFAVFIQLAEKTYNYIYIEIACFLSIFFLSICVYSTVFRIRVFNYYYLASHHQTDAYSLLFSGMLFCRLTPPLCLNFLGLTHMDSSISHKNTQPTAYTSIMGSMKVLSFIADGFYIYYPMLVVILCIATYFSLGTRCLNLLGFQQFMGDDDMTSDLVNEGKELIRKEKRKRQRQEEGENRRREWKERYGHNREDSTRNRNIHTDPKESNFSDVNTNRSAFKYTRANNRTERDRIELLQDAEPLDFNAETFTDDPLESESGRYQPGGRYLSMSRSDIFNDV
UniProt Q9UFC0: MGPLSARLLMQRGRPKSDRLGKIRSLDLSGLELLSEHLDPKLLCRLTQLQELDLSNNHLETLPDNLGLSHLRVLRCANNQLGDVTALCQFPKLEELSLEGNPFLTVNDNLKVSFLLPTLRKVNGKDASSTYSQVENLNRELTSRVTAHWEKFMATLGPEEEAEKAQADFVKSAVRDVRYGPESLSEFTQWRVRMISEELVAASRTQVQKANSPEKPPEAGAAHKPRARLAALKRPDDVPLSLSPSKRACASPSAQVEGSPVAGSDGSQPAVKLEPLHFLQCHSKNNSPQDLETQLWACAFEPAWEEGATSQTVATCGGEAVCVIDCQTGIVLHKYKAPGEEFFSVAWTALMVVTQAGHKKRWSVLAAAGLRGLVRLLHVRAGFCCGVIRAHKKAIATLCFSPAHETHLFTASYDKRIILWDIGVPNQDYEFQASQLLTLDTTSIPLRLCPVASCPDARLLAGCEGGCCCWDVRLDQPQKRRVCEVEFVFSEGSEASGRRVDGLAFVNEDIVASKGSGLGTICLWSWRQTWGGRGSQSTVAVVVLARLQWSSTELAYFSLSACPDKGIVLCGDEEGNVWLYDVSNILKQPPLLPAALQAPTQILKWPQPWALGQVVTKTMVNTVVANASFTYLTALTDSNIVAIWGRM
UniProt O75427: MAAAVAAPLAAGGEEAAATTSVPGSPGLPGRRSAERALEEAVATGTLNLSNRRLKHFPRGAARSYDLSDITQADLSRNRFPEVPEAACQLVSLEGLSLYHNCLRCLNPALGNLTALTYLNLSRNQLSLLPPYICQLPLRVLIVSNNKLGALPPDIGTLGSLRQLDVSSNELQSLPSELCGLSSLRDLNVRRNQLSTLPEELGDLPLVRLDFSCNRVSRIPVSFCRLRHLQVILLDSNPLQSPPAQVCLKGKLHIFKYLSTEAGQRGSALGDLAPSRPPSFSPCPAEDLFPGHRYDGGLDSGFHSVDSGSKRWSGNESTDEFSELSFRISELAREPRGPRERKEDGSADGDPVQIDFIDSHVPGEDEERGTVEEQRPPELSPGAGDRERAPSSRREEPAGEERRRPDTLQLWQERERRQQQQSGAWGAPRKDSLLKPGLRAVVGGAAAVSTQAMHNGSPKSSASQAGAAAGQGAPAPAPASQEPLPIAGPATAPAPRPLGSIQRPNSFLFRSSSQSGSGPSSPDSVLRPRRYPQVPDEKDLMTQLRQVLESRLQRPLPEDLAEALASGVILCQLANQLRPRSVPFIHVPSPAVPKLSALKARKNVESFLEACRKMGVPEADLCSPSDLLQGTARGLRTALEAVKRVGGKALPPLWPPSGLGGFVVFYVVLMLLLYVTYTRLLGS
UniProt Q96AG4: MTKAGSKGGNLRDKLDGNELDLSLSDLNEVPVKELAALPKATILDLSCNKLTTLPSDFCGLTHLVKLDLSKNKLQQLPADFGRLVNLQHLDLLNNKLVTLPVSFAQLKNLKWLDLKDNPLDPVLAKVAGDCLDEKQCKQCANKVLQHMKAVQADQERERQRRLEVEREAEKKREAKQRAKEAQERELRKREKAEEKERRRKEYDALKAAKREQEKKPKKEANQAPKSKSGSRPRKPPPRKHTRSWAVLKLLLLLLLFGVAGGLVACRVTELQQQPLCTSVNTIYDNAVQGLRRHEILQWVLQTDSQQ
UniProt Q9UK45: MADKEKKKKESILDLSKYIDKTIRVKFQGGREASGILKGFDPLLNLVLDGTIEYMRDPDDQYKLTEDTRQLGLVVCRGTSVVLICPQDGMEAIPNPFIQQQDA
UniProt Q96GY3: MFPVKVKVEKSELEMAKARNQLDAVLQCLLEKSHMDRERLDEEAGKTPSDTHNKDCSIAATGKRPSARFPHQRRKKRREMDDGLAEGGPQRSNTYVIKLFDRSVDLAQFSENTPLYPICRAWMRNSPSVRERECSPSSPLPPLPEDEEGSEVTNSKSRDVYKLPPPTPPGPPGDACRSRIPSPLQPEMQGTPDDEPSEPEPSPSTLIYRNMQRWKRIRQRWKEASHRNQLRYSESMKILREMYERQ
UniProt Q9H089: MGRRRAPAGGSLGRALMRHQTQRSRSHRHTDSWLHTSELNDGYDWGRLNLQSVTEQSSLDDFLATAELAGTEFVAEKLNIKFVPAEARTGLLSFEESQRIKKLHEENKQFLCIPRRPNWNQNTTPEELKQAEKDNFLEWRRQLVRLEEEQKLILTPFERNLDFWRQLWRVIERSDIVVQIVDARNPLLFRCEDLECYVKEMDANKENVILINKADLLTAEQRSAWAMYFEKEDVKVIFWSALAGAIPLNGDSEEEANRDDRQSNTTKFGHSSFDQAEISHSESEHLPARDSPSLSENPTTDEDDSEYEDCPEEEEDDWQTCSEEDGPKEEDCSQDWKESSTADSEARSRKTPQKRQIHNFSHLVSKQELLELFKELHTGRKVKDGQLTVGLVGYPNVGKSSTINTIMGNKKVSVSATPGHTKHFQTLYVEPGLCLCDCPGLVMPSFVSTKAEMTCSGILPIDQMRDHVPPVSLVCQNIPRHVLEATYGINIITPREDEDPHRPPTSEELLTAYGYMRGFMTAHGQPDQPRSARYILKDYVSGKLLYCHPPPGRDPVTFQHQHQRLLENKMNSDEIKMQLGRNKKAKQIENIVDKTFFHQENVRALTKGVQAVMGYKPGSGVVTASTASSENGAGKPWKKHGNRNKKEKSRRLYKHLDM
UniProt P48357: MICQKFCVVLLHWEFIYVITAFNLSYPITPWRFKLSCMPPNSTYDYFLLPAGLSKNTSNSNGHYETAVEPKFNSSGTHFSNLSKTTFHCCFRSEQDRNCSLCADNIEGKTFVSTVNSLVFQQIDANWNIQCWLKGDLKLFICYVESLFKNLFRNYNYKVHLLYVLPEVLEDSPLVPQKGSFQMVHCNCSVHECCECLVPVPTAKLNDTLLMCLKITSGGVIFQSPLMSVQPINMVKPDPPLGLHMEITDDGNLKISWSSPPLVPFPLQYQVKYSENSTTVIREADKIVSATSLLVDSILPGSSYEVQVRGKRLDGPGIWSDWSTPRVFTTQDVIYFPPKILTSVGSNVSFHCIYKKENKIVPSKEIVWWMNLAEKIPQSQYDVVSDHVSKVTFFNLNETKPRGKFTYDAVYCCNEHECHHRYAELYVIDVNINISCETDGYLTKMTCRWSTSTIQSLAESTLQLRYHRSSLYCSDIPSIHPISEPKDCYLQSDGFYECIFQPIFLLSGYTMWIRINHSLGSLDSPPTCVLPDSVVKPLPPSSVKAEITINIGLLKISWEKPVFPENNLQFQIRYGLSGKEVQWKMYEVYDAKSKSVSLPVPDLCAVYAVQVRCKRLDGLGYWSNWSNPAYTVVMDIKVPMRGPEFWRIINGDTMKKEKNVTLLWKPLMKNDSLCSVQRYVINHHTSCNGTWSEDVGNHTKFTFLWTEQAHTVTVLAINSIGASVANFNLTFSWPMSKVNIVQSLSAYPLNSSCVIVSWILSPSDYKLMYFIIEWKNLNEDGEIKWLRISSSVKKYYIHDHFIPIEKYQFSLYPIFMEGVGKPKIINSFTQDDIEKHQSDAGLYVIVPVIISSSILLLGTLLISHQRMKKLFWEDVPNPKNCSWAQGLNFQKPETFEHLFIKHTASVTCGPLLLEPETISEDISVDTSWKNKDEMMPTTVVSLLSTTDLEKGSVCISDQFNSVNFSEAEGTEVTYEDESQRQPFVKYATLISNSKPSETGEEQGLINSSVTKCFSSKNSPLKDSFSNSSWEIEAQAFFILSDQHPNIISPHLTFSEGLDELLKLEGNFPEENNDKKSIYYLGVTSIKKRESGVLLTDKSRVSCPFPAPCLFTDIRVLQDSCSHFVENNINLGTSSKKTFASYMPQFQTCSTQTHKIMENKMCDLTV
UniProt Q8NG48: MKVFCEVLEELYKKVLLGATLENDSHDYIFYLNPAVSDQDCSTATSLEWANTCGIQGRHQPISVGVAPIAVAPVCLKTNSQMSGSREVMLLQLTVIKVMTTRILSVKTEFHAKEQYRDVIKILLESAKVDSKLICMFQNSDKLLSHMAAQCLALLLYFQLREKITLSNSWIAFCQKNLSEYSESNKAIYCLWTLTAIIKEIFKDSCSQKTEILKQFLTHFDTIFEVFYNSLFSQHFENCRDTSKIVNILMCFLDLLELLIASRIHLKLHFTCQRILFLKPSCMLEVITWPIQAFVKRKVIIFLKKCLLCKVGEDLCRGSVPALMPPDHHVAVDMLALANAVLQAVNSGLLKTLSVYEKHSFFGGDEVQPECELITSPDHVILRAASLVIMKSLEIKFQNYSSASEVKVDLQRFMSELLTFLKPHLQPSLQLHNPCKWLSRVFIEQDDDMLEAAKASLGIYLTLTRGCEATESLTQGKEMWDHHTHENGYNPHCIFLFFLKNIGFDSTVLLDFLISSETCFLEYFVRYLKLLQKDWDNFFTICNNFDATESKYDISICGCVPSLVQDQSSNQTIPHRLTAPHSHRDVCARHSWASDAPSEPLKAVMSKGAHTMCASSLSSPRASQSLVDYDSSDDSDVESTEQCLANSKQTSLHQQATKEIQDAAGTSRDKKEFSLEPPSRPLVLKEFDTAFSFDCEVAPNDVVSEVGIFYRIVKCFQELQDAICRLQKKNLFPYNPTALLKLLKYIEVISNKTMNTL
UniProt P02545: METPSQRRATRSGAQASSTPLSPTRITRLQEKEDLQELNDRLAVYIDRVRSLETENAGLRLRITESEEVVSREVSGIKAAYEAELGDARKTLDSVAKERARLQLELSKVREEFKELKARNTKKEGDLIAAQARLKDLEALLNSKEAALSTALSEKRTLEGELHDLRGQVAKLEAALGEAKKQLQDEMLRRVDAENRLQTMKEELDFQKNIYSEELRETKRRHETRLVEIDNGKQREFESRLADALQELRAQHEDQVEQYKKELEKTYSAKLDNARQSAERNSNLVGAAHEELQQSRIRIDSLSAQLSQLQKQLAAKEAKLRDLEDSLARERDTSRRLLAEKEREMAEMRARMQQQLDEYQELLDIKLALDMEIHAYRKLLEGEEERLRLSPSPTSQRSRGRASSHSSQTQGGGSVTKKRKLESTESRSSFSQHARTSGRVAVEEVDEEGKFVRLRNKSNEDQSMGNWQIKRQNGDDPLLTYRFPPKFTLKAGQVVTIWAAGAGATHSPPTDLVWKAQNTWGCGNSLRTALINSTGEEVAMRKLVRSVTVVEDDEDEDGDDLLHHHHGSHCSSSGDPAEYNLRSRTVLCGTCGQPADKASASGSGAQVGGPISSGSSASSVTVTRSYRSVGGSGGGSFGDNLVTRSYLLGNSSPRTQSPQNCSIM
UniProt Q3MHD2: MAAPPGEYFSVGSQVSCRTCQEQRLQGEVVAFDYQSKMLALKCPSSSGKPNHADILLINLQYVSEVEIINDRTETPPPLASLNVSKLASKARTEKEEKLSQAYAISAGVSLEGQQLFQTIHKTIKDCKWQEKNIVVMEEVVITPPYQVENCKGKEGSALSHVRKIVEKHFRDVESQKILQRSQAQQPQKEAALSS
UniProt Q6P1Q0: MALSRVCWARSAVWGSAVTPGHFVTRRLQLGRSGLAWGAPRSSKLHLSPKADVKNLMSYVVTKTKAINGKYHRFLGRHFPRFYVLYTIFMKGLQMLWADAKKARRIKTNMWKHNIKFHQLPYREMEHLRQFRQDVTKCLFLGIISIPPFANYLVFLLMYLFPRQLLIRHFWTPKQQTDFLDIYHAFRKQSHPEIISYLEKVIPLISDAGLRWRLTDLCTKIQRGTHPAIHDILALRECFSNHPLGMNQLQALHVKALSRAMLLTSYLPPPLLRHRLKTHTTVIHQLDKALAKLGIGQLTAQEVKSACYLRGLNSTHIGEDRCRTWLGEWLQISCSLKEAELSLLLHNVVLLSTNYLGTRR

How the values were obtained:
Experiment in all cases: log2 fold change, soluble protein after heating vs DMSO (PISA); higher = thermal stabilisation; K562 lysate, 10 uM; active = over 0.2 and 3.5 SD of the protein, either way, in both replicates (recomputed)
erlotinib = compound: C#Cc1cccc(Nc2ncnc3cc(OCCOC)c(OCCOC)cc23)c1 [erlotinib]
Summary of the method: (§1)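 Dounce homogenisation of K562 pellets in PBS pH 7.4 with 1 mM MgCl2 produced a crude extract, used at 1 mg/mL protein. Exposure to 10 μM compound lasted 30 min, and aliquots were then heated for 3 min across 48°C-58°C, pooled and brought to 0.5% NP-40 at 4°C. The supernatant after 21,000xg for 90 min was quantified by TMTpro 16plex LC-MS/MS with channel sums equalised. Duplicate values are given as log-two fold change in thermal stability relative to solvent controls.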

[1] = compound: C/C(=N\NC(=O)C1=CC(=CC=C1)S(=O)(=O)N2CCOCC2)/C3=C(C=CC(=C3)Cl)O
Summary of the method: as §1

[2] = compound: C1=CC(=CC=C1C2=NC3=C(N2)C=C(C=C3)C(=O)N)OC4=CC=C(C=C4)Cl
Summary of the method: as §1

[3] = compound: C1=CC2=C(C=CC(=C2)/C=C\3/C(=O)NC(=NCC4=CC=CS4)S3)N=C1
Summary of the method: as §1

[4] = compound: C1=CC2=NC=CN=C2C=C1/C=C/3\C(=O)NC(=O)S3
Summary of the method: as §1

[5] = compound: C1=CC=C(C=C1)C2=NC(=C(N2)C3=CC=NC=C3)C4=CC(=C(C=C4)Cl)O
Summary of the method: as §1

[6] = compound: C1=CC=C2C(=C1)C3=NNC4=CC=CC(=C43)C2=O
Summary of the method: as §1

[7] = compound: C1CCN(C1)C(=O)NC2=CC=CC(=C2)NC3=NC=C(C(=N3)NCCC4=CN=CN4)Br
Summary of the method: as §1

[8] = compound: C1CN(CCC1(CC2=CC=C(C=C2)Cl)N)C3=NC=NC4=C3C=CN4
Summary of the method: as §1

IRAK-1-4 Inhibitor I = compound: C1COCCN1CCN2C3=CC=CC=C3N=C2NC(=O)C4=CC(=CC=C4)[N+](=O)[O-] [IRAK-1-4 Inhibitor I]
Summary of the method: as §1

ibrutinib = compound: C=CC(=O)N1CCC[C@@H](n2nc(-c3ccc(Oc4ccccc4)cc3)c3c(N)ncnc32)C1 [ibrutinib]
Summary of the method: as §1

[9] = compound: CC(=O)c1cnc2ccc(-c3cc(Cl)c(O)c(Cl)c3)nc2c1N[C@H]1CC[C@H](CN(C)C)CC1
Summary of the method: as §1

ralimetinib = compound: CC(C)(C)Cn1c(N)nc2ccc(-c3[nH]c(C(C)(C)C)nc3-c3ccc(F)cc3)nc21 [ralimetinib]
Summary of the method: as §1

[10] = compound: CC(C)(O)CC(=O)NCCn1ccc2ncnc(Nc3ccc(Oc4cccc(C(F)(F)F)c4)c(Cl)c3)c21
Summary of the method: as §1

[11] = compound: CC(C)C1=C2N=C(C=C(N2N=C1)NCC3=CC=CC=C3)NCCCCCCN
Summary of the method: as §1

[12] = compound: CC1=C(C(CC(=O)N1)C2=CC=C(C=C2)C(F)(F)F)C(=O)NC3=C(C=C4C(=C3)C=NN4)F
Summary of the method: as §1

[13] = compound: CC1=C(C2=C(C=C1)C(=O)C3=CC=CC=C3N2CCCN)C
Summary of the method: as §1

[14] = compound: CC1=C(C=C(C=C1)NC(=O)C2=CC(=CC=C2)C(C)(C)C#N)NC3=CC4=C(C=C3)N=CN(C4=O)C
Summary of the method: as §1

[15] = compound: CC1=C(C=C(C=C1)NC(=O)C2=CC(=CC=C2)N(C)C)NC(=O)C3=CC=C(C=C3)O
Summary of the method: as §1

[16] = compound: CC1=CC=C(C=C1)SC2=C3C=C(SC3=CN=C2)C(=O)N
Summary of the method: as §1

Measured: log2 fold change

LMBRD2 (UniProt Q68DH5)
inactive: erlotinib -0.025 | [1] -0.116 | [2] 0.155 | [3] -0.009 | [4] -0.045 | [5] -0.039 | [6] -0.021 | [7] 0.001 | [8] -0.057 | IRAK-1-4 Inhibitor I 0.029 | ibrutinib -0.004 | [9] 0.028 | ralimetinib 0.049 | [10] -0.063 | [11] 0.694 | [12] 0.118 | [13] -0.005 | [14] 0.023 | [15] -0.006 | [16] -0.017

LRPPRC (UniProt P42704)
inactive: erlotinib 0.04 | [1] 0.028 | [2] -0.02 | [3] 0.048 | [4] 0.067 | [5] -0.004 | [6] -0.017 | [7] -0.012 | [8] 0.006 | IRAK-1-4 Inhibitor I 0.006 | ibrutinib 0.006 | [9] 0.023 | ralimetinib 0.027 | [10] 0.019 | [11] 0.018 | [12] -0.011 | [13] 0.038 | [14] -0.009 | [15] 0.052 | [16] 0.016

LRWD1 (UniProt Q9UFC0)
inactive: erlotinib -0.031 | [1] -0.002 | [2] 0.031 | [3] 0.032 | [4] 0.057 | [5] 0.016 | [6] -0.014 | [7] 0.002 | [8] 0.03 | IRAK-1-4 Inhibitor I -0.02 | ibrutinib 0.082 | [9] -0.009 | ralimetinib 0.004 | [10] 0 | [11] 0.035 | [12] 0.015 | [13] -0.004 | [14] 0 | [15] 0.032 | [16] 0.04

LRCH4 (UniProt O75427)
inactive: erlotinib 0.006 | [1] 0.038 | [2] -0.021 | [3] -0.003 | [4] -0.2 | [5] 0.097 | [6] -0.026 | [7] 0.081 | [8] -0.112 | IRAK-1-4 Inhibitor I 0.023 | ibrutinib -0.088 | [9] -0.028 | ralimetinib -0.005 | [10] -0.015 | [11] 0.072 | [12] -0.102 | [13] 0.041 | [14] 0.03 | [15] 0.137 | [16] -0.048

LRRC59 (UniProt Q96AG4)
inactive: erlotinib -0.025 | [1] 0 | [2] -0.006 | [3] -0.033 | [4] -0.011 | [5] 0.004 | [6] 0.016 | [7] 0.001 | [8] 0.001 | IRAK-1-4 Inhibitor I 0.013 | ibrutinib -0.013 | [9] -0.002 | ralimetinib -0.064 | [10] -0.011 | [11] 0.019 | [12] -0.04 | [13] 0.014 | [14] 0.017 | [15] -0.054 | [16] 0.008

LSM7 (UniProt Q9UK45)
inactive: erlotinib -0.004 | [1] 0.029 | [2] -0.003 | [3] -0.019 | [4] -0.023 | [5] -0.043 | [6] 0.008 | [7] 0.009 | [8] 0 | IRAK-1-4 Inhibitor I 0.026 | ibrutinib -0.057 | [9] -0.013 | ralimetinib -0.021 | [10] 0.018 | [11] 0.012 | [12] -0.076 | [13] -0.026 | [14] 0.028 | [15] -0.002 | [16] -0.021

Reprinted at random: two entries already listed
LRWD1 (UniProt Q9UFC0)
inactive: erlotinib -0.031 | [1] -0.002 | [2] 0.031 | [3] 0.032 | [4] 0.057 | [5] 0.016 | [6] -0.014 | [7] 0.002 | [8] 0.03 | IRAK-1-4 Inhibitor I -0.02 | ibrutinib 0.082 | [9] -0.009 | ralimetinib 0.004 | [10] 0 | [11] 0.035 | [12] 0.015 | [13] -0.004 | [14] 0 | [15] 0.032 | [16] 0.04

LRPPRC (UniProt P42704)
inactive: erlotinib 0.04 | [1] 0.028 | [2] -0.02 | [3] 0.048 | [4] 0.067 | [5] -0.004 | [6] -0.017 | [7] -0.012 | [8] 0.006 | IRAK-1-4 Inhibitor I 0.006 | ibrutinib 0.006 | [9] 0.023 | ralimetinib 0.027 | [10] 0.019 | [11] 0.018 | [12] -0.011 | [13] 0.038 | [14] -0.009 | [15] 0.052 | [16] 0.016

Going on with the list:

LIN37 (UniProt Q96GY3)
inactive: erlotinib 0.09 | [1] -0.261 | [2] 0.102 | [3] -0.234 | [4] 0.027 | [5] 0.008 | [6] 0.025 | [7] 0.093 | [8] 0.066 | IRAK-1-4 Inhibitor I -0.007 | ibrutinib -0.042 | [9] 0.045 | ralimetinib -0.094 | [10] 0.089 | [11] 0 | [12] 0.067 | [13] -0.114 | [14] 0.065 | [15] 0.036 | [16] -0.094

LRBA, A0A494BZW2
inactive: erlotinib -0.096 | [1] -0.017 | [2] 0.13 | [3] -0.032 | [4] -0.061 | [5] -0.018 | [6] 0.044 | [7] 0.002 | [8] 0.057 | IRAK-1-4 Inhibitor I -0.031 | ibrutinib -0.002 | [9] 0.054 | ralimetinib 0.014 | [10] -0.06 | [11] 0.307 | [12] 0.087 | [13] -0.061 | [14] 0.281 | [15] -0.025 | [16] -0.044

LSG1 (UniProt Q9H089)
inactive: erlotinib 0.044 | [1] 0.036 | [2] -0.059 | [3] -0.136 | [4] -0.021 | [5] 0 | [6] -0.114 | [7] -0.031 | [8] 0.103 | IRAK-1-4 Inhibitor I -0.048 | ibrutinib -0.083 | [9] -0.033 | ralimetinib 0.026 | [10] 0.052 | [11] 0.032 | [12] 0.004 | [13] -0.187 | [14] 0.012 | [15] 0.013 | [16] 0.031

LMO2 isoform 3 (UniProt P25791)
inactive: erlotinib -0.01 | [1] -0.027 | [2] -0.083 | [3] -0.025 | [4] 0.208 | [5] -0.124 | [6] -0.02 | [7] -0.124 | [8] -0.055 | IRAK-1-4 Inhibitor I 0.028 | ibrutinib -0.139 | [9] 0.052 | ralimetinib 0.162 | [10] 0.071 | [11] -0.026 | [12] 0.049 | [13] 0.032 | [14] -0.11 | [15] -0.066 | [16] -0.001

LEPR (UniProt P48357)
inactive: erlotinib -0.006 | [1] -0.016 | [2] 0.001 | [3] -0.027 | [4] 0.001 | [5] -0.071 | [6] 0.022 | [7] -0.046 | [8] 0.115 | IRAK-1-4 Inhibitor I 0.078 | ibrutinib -0.005 | [9] 0.023 | ralimetinib 0 | [10] -0.025 | [11] -0.012 | [12] 0.013 | [13] -0.035 | [14] -0.047 | [15] 0.051 | [16] 0.084

LIMA1 isoform 4 (UniProt Q9UHB6)
inactive: erlotinib 0.001 | [1] -0.035 | [2] 0.002 | [3] -0.029 | [4] -0.018 | [5] 0.028 | [6] -0.007 | [7] -0.006 | [8] -0.025 | IRAK-1-4 Inhibitor I 0.009 | ibrutinib 0 | [9] 0.01 | ralimetinib -0.01 | [10] -0.042 | [11] 0 | [12] -0.018 | [13] -0.04 | [14] -0.006 | [15] 0.01 | [16] -0.007

LINS1 (UniProt Q8NG48)
inactive: erlotinib 0.094 | [1] 0.002 | [2] -0.057 | [3] -0.042 | [4] 0.08 | [5] -0.035 | [6] 0.007 | [7] 0.003 | [8] 0 | IRAK-1-4 Inhibitor I -0.013 | ibrutinib 0.103 | [9] -0.006 | ralimetinib 0.079 | [10] -0.07 | [11] 0.379 | [12] 0.106 | [13] 0.124 | [14] 0.11 | [15] 0.067 | [16] 0.11

LMNA (UniProt P02545)
inactive: erlotinib -0.01 | [1] -0.006 | [2] 0.003 | [3] -0.019 | [4] -0.025 | [5] -0.011 | [6] 0.002 | [7] 0.036 | [8] -0.019 | IRAK-1-4 Inhibitor I -0.004 | ibrutinib 0.016 | [9] -0.015 | ralimetinib 0.04 | [10] 0.001 | [11] -0.029 | [12] -0.037 | [13] 0.044 | [14] -0.037 | [15] -0.003 | [16] -0.014

LSM12 (UniProt Q3MHD2)
inactive: erlotinib -0.023 | [1] -0.135 | [2] 0.056 | [3] 0.013 | [4] 0.001 | [5] -0.017 | [6] -0.006 | [7] -0.022 | [8] 0.008 | IRAK-1-4 Inhibitor I 0.013 | ibrutinib -0.005 | [9] 0.014 | ralimetinib -0.032 | [10] -0.008 | [11] -0.027 | [12] -0.004 | [13] -0.038 | [14] -0.036 | [15] -0.004 | [16] -0.004

LETMD1 isoform 7 (UniProt Q6P1Q0)
inactive: erlotinib -0.008 | [1] 0.124 | [2] -0.17 | [3] 0.022 | [4] -0.021 | [5] -0.019 | [6] 0.021 | [7] -0.021 | [8] -0.032 | IRAK-1-4 Inhibitor I 0.009 | ibrutinib 0.007 | [9] 0.04 | ralimetinib -0.001 | [10] -0.003 | [11] 0.024 | [12] 0.005 | [13] -0.063 | [14] 0.005 | [15] -0.092 | [16] 0.036
